# Results published in PubChem BioAssay AID2685 (National Center for Advancing Translational Sciences (NCATS), 2010).
# This is one part of the list. These are further read-outs of the screen, such as a control signal, another cell line or another target. No call is given for them. Most of these compounds were active or inconclusive in the main read-out, so they are no random draw. The note in brackets gives the kind of curve behind each potency; many fits are weak.
# Assay: qHTS Assay for Lipid Storage Modulators in Drosophila S3 Cells;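 as to cell number change: cells counted by Cell Tracker Red CMTPX staining in the red channel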
# Conditions: BODIPY lipid droplet fluorescence, 18-24 h; for cell number change: measured here: cell count max response, cells fed with added oleic acid
# Summary of the method: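 Drosophila S3 cells loaded with oleic acid (400 uM, as added) and compounds at several concentrations; lipid droplets imaged by 488-nm laser-scanning cytometry, 500–530 nm intensity and object ratio to cell channel. Percent activity normalized to 20 uM Triacsin C.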
# [1] = measured here: lipid fluorescence (Fed channel) AC50, cells fed with added oleic acid
# [2] = measured here: cell number channel AC50, cells fed with added oleic acid
Structure (SMILES),cell number change [%],AC50 [1],AC50 [2]
CCOc1ccccc1NC(=O)C(=O)CC(=O)c1ccc(OC)cc1,-14.6,"32.6 µM [falling, single point]",
Cc1cccc(-c2noc(CCc3ccccc3)n2)c1,3.8,,
CC(C)n1nnnc1SCC(=O)Nc1ccccc1F,6.25,,
CSc1ccc(C(=O)N2CCc3ccc(NC(=O)c4ccccn4)cc3C2)cc1,-34,,"0.00461 µM [falling, full curve, poor fit]"
O=C(CN1CCOCC1)Nc1nc2ccc(Cl)cc2s1,-15.2,"0.116 µM [rising, full curve, poor fit]",
Cc1ccc2cccc(OCC(=O)Nc3cccc(S(=O)(=O)N4CCCC4)c3)c2n1,-17.5,"0.411 µM [rising, single point]",
CCn1cc([N+](=O)[O-])c(C(=O)N2N=C(c3ccc(OC)cc3OC)CC2c2ccccc2O)n1 (stereo not drawn),-7.3,"29.1 µM [falling, single point]",
Cc1c(Cl)cccc1NC(=S)NCCc1ccc(Cl)cc1,-24.7,"20.6 µM [falling, single point]",
CCN(CC(=O)Nc1ccccc1C(F)(F)F)C(=O)c1oc2c(Cl)cccc2c1C,,,"1.64 µM [rising, partial curve]"
O=C(COC(=O)c1cccc2ccccc12)Nc1ncc(C(F)(F)F)cc1Cl,-89.8,"23.1 µM [falling, partial curve]","25.9 µM [falling, partial curve]"
Cc1cc(C)c(NC(=S)N2CCC(N(C)CC3CCCO3)CC2)c(C)c1 (stereo not drawn),,"23.1 µM [falling, partial curve]",
Cc1cc(NC(=O)CSc2nnc(-c3ccccc3Cl)o2)no1,43.6,"29.1 µM [falling, single point]","25.9 µM [rising, partial curve, poor fit]"
C/C(=N\NC(=O)c1n[nH]c2c1CCC2)c1ccco1,18.3,,
COc1cc2c3nnc(-c4ccc(F)cc4)c-3cn(Cc3cccc(F)c3)c2cc1OC,-30.7,"32.6 µM [falling, partial curve]","32.6 µM [falling, partial curve, poor fit]"
COc1ccc(-c2cc(C)no2)cc1S(=O)(=O)N(C)c1ccc(C)c(C)c1,-24.4,"29.1 µM [falling, single point]",
O=C(Cc1ccc(S(=O)(=O)N2CCOCC2)s1)N1CCN(c2cccc(C(F)(F)F)c2)CC1,-27.2,"16.4 µM [falling, single point]",
Cc1noc(C(=O)Nc2c(C)nn(Cc3ccccc3)c2C)c1Cl,5.93,"5.8 µM [falling, single point]","4.61 µM [falling, single point]"

# 3 structures from above, arranged by formula weight, smallest number first.
Structure (SMILES),cell number change [%],AC50 [1],AC50 [2]
CC(C)n1nnnc1SCC(=O)Nc1ccccc1F,6.25,,
Cc1cc(NC(=O)CSc2nnc(-c3ccccc3Cl)o2)no1,43.6,"29.1 µM [falling, single point]","25.9 µM [rising, partial curve, poor fit]"
CCn1cc([N+](=O)[O-])c(C(=O)N2N=C(c3ccc(OC)cc3OC)CC2c2ccccc2O)n1 (stereo not drawn),-7.3,"29.1 µM [falling, single point]",
